Measurements reported in PubChem BioAssay AID1224829 (NIAID, 2016).
Screen: 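Follow-up of TLR4-NF-kappaB regulators using six separate siRNAs for each gene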 (follow-up of hits). Cell system: mouse RAW264.7 G9 macrophage reporter cells. Knock-down reagent: single siRNA against mouse genes, 100 nM. Duration: 2 days of siRNA knock-down, then 40 min of LPS before fixing. Challenge: LPS (Salmonella minnesota R595) at 10 ng/ml. Detection: 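Imaging of GFP-p65 after 40 min of LPS; nuclear over perinuclear ring intensity ratio, scaled to plate median and non-targeting control wells, given as z-score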. Reading the numbers: p65 translocation z-score: higher = more nuclear NF-kappaB p65 after LPS. Hit rule: 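Active means the replicate-mean z-score lies beyond plus or minus 2, in either direction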. Meaning of the calls: active = changed p65 translocation (either direction); inactive = no clear change.
In all, the deposit lists about 3,800 reagents; shown is an unselected part. 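Calls cover raised and lowered translocation; gene median uses one vendor's three siRNAs; qiagen siRNAs acted more weakly than ambion siRNAs.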 Entries without a mark were called inactive. Reagents against one gene are numbered here. Further read-outs or replicates are left out here.

Gene | reagent | siRNA vendor or control pool | p65 translocation z-score, replicate mean | p65 translocation z-score, replicate 1 | p65 translocation z-score, replicate 2
Bmp2 (GeneID 12156) | 1 | ambion single siRNA | -2.35 (active) | -2.87 | -1.82
Bmp2 (GeneID 12156) | 2 | ambion single siRNA | -0.856 | -1.71 | 0.000843
Bmp2 (GeneID 12156) | 3 | ambion single siRNA | -1.83 | -2.17 | -1.49
Bmp2 (GeneID 12156) | 4 | qiagen single siRNA | 2.62 (active) | 1.82 | 3.41
Bmp2 (GeneID 12156) | 5 | qiagen single siRNA | 1.79 | -0.371 | 3.96
Bmp2 (GeneID 12156) | 6 | qiagen single siRNA | -1.71 | -1.11 | -2.31
Phax (GeneID 56698) | 1 | ambion single siRNA | 2.95 (active) | 4.46 | 1.44
Phax (GeneID 56698) | 2 | ambion single siRNA | -2.45 (active) | -3.09 | -1.81
Phax (GeneID 56698) | 3 | ambion single siRNA | -3.64 (active) | -3.54 | -3.74
Phax (GeneID 56698) | 4 | qiagen single siRNA | 2.24 (active) | 1.71 | 2.76
Phax (GeneID 56698) | 5 | qiagen single siRNA | 0.67 | -0.23 | 1.57
Phax (GeneID 56698) | 6 | qiagen single siRNA | 2.4 (active) | 0.681 | 4.11
Ica1l (GeneID 70375) | 1 | ambion single siRNA | 1.72 | 2.09 | 1.36
Ica1l (GeneID 70375) | 2 | ambion single siRNA | 0.7 | 0.9 | 0.499
Ica1l (GeneID 70375) | 3 | ambion single siRNA | -2.19 (active) | -1.31 | -3.07
Ica1l (GeneID 70375) | 4 | qiagen single siRNA | 2.08 (active) | 2.21 | 1.95
Ica1l (GeneID 70375) | 5 | qiagen single siRNA | -0.583 | 0.613 | -1.78
Ica1l (GeneID 70375) | 6 | qiagen single siRNA | 0.123 | -1.92 | 2.17
Rxrb (GeneID 20182) | 1 | ambion single siRNA | -1.69 | -2.73 | -0.641
Rxrb (GeneID 20182) | 2 | ambion single siRNA | -1.74 | -1.28 | -2.19
Rxrb (GeneID 20182) | 3 | ambion single siRNA | 0.201 | 1.01 | -0.607
Rxrb (GeneID 20182) | 4 | qiagen single siRNA | -0.734 | -0.743 | -0.725
Rxrb (GeneID 20182) | 5 | qiagen single siRNA | -2.46 (active) | -2.29 | -2.63
Rxrb (GeneID 20182) | 6 | qiagen single siRNA | 0.287 | 0.287 | –

The list goes on (2 carried over from the part before).
Gene | reagent | siRNA vendor or control pool | p65 translocation z-score, replicate mean | p65 translocation z-score, replicate 1 | p65 translocation z-score, replicate 2
Rxrb (GeneID 20182) | 5 | qiagen single siRNA | -2.46 (active) | -2.29 | -2.63
Rxrb (GeneID 20182) | 6 | qiagen single siRNA | 0.287 | 0.287 | –
Fam91a1 (GeneID 210998) | 1 | ambion single siRNA | -2.06 (active) | -2.06 | –
Fam91a1 (GeneID 210998) | 2 | ambion single siRNA | 1.45 | 1.13 | 1.77
Fam91a1 (GeneID 210998) | 3 | ambion single siRNA | -1.24 | -1.24 | –
Fam91a1 (GeneID 210998) | 4 | qiagen single siRNA | 3.16 (active) | 2.96 | 3.36
Fam91a1 (GeneID 210998) | 5 | qiagen single siRNA | 0.839 | 0.302 | 1.38
Fam91a1 (GeneID 210998) | 6 | qiagen single siRNA | -1.09 | -0.952 | -1.22
Rab7 (GeneID 19349) | 1 | ambion single siRNA | 0.158 | 0.521 | -0.205
Rab7 (GeneID 19349) | 2 | ambion single siRNA | -1.67 | -1.8 | -1.54
Rab7 (GeneID 19349) | 3 | ambion single siRNA | -3.69 (active) | -3.81 | -3.56
Rab7 (GeneID 19349) | 4 | qiagen single siRNA | -1.88 | -1.57 | -2.18
Rab7 (GeneID 19349) | 5 | qiagen single siRNA | -0.997 | -0.91 | -1.08
Rab7 (GeneID 19349) | 6 | qiagen single siRNA | -1.6 | -1.72 | -1.47
